# Earlier results in PMC10716778 (The Journal of Biological Chemistry, 2023).
# Tested on: K. pneumoniae clinical isolates containing KPC-2
# Details: K. pneumoniae clinical isolate containing KPC-2; cited from earlier work
compound,measurement,value
C[C@@H](O)[C@H]1C(=O)N2C(C(=O)O)=C(S[C@@H]3CN[C@H](C(=O)N(C)C)C3)[C@H](C)[C@H]12 [Meropenem],MIC,> 32 µg/mL
